3 molecules from patent CN117551199A can be followed below.

Experiment [1] has as its target T1, Claudin18.2抗原 (恺佧生物，货号CLD-HE1822) (UniProt P56856).
T1 sequence (looked up): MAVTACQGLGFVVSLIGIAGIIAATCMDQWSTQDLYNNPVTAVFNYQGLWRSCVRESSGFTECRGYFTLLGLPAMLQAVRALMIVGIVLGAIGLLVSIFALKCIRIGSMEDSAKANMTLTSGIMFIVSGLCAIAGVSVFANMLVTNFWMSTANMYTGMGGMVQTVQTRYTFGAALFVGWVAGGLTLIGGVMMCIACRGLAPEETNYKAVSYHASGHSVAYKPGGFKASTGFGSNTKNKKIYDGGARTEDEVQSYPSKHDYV
In words: ELISA, Claudin18.2 antigen coated at 100 ng/mL, HRP anti-Myc detection.

The target in experiment [2] is T2, Claudin18.2 VLP (UniProt P56856).
T2 sequence: T1 sequence (looked up)
Kind of experiment: BLI, Fc-tagged nanobody captured on AHC sensor, Claudin18.2 VLP as analyte.

These are yes or no findings as the source states them, for the method shown. Some binding calls cover weakened binding; strength is not graded here. For part of these data: Tags and fused reporters may be left off the sequences shown.

B1: Claudin18.2纳米抗体 12B (VHH, not shown: small tags and cut ends)
VHH: EVQLVESGGGSVQAGGSLRLSCAVSGYTYNLKYMGWFRQAPGKEREPVAFIYLGGDNQYYAPSVKDRFTISQDNAKNTVYLQMNSLKPDDTAMYYCAATTALLFLAQTSSWNYWGQGTQVTVSS
For B1, the binding result in experiment [1] was “binds”.

B2: 12B带Fc标签 (12B with Fc tag) (Fc fusion)
chain: B1 VHH
Take B2: in experiment [2], the binding result was “binds”.

B3: 11C带Fc标签 (11C with Fc tag) (Fc fusion)
chain: DVQLQESGGGSVQAGGSLRLSCAASGAIYMRNYMAWFRQVPGKEREGVAGISASSGRTYYDDSVKGRFTISQDNAKNTVYLQMNSLKPEDTAMYFCAADPFQVMIDTMRYWGQGTQVTVSS
As for B3, the binding entry in experiment [2] was “binds”.
